This note sets out measurements from article doi:10.1101/2024.03.20.585881.

Amino acid sequences for entries named in this document (tags omitted).
UniProt O15169: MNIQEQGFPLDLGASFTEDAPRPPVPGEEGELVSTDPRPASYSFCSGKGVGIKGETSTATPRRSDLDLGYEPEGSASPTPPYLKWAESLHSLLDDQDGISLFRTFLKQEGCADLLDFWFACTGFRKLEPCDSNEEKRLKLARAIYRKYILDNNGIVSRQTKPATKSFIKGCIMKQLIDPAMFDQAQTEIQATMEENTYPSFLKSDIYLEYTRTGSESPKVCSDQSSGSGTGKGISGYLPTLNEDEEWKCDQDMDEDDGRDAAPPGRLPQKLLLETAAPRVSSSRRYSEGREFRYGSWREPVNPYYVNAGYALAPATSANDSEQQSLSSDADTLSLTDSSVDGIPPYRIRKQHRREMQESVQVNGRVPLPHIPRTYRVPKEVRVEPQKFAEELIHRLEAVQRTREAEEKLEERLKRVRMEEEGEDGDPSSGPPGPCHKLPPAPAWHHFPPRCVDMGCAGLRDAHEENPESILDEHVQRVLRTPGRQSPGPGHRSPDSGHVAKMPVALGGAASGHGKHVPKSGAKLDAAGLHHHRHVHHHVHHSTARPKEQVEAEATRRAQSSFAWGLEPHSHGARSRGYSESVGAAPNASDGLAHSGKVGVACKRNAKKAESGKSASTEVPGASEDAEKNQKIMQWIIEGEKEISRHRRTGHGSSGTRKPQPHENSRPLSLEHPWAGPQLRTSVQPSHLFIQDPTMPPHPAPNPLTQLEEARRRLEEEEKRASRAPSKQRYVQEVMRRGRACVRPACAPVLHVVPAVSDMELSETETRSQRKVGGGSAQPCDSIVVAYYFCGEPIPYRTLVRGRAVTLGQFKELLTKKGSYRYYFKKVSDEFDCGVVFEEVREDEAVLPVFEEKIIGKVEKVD
UniProt P25054: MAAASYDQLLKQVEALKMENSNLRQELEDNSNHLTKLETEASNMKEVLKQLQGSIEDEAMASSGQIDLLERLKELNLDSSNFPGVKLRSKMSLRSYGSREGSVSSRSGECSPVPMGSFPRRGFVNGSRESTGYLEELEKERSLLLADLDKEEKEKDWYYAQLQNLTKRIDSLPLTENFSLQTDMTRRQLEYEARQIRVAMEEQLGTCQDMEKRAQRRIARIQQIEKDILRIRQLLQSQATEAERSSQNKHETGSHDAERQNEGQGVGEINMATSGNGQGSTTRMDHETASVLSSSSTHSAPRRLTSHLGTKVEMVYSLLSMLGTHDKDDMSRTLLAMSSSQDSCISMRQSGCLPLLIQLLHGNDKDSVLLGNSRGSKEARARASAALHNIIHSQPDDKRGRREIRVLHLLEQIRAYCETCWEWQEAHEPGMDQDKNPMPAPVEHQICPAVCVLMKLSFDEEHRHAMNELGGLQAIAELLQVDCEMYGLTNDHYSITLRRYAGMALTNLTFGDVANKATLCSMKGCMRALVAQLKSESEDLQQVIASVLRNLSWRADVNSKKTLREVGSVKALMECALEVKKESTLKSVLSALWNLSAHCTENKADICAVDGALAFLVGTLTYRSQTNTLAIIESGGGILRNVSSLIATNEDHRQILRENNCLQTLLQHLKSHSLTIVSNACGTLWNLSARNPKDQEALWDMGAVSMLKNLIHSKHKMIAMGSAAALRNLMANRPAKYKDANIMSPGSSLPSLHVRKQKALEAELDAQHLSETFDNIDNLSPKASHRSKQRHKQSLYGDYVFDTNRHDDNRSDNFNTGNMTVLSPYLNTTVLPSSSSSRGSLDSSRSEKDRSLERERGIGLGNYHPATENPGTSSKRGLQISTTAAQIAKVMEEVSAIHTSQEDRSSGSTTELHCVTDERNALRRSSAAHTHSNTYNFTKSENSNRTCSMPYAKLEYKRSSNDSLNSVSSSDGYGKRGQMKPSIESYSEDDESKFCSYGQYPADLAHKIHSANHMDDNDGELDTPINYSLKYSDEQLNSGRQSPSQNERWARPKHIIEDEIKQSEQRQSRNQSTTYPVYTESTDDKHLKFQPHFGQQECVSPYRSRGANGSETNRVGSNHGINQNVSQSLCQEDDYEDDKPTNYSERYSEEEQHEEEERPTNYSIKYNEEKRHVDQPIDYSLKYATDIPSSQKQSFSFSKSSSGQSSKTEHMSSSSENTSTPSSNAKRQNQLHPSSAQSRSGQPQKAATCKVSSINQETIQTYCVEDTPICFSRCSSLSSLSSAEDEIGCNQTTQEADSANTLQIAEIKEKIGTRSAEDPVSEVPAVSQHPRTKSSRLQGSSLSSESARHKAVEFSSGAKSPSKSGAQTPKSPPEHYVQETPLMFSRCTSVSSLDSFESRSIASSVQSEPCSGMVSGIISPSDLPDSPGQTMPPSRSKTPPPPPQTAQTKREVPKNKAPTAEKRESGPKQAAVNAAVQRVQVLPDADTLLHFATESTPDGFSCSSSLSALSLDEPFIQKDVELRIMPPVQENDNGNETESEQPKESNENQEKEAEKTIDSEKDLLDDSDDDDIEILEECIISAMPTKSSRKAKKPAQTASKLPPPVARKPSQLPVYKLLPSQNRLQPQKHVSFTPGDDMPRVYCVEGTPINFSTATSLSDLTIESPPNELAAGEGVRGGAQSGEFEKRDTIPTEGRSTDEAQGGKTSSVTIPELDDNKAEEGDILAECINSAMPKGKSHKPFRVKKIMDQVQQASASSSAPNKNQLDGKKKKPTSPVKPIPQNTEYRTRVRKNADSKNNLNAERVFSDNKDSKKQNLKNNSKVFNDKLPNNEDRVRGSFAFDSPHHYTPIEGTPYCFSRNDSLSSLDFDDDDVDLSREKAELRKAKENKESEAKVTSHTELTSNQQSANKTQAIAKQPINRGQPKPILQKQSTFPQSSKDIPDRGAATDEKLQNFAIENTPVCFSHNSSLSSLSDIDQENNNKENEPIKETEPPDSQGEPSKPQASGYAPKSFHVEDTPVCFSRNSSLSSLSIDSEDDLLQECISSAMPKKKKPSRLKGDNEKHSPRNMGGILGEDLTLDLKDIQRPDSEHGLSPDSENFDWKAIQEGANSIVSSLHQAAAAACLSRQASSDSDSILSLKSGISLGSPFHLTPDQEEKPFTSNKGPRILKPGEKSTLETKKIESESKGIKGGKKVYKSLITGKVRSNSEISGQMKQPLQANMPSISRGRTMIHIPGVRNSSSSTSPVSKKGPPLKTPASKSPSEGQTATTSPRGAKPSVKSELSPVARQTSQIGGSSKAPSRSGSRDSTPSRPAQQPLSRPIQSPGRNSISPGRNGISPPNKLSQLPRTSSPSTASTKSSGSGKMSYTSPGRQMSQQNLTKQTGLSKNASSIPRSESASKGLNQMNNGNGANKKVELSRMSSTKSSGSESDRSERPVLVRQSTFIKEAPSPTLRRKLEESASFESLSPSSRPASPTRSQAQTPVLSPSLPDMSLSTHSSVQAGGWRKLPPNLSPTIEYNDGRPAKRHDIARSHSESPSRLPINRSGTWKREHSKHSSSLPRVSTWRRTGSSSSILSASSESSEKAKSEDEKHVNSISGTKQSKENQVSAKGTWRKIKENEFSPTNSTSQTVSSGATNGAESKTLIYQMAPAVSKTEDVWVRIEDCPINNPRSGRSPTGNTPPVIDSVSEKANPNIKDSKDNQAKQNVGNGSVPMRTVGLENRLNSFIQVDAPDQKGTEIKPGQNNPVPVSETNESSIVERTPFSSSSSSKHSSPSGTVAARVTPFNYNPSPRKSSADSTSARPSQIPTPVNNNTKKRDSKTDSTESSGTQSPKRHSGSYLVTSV

Holding throughout (experiment): RNA immunoprecipitation with sequencing
One experiment addresses 3xFLAG-eGFP-Axin1 (UniProt O15169).
Experiment [1] has as its target 3xFLAG-mScarlet-APC (human (endogenous in HEK293)) (UniProt P25054).
For experiment [2], the target named is 3xFLAG-mScarlet-APC (human (endogenous in HEK293)), P25054. The note with it: remark: other sources report otherwise.

These are yes or no findings as the source states them, for the method shown. Some results given as binding are weak or reduced against the parent protein; the word gives no strength.

B1: JUP (ψ-catenin) (protein, UniProt P14923 1-745)
chain: MEVMNLMEQPIKVTEWQQTYTYDSGIHSGANTCVPSVSSKGIMEEDEACGRQYTLKKTTTYTQGVPPSQGDLEYQMSTTARAKRVREAMCPGVSGEDSSLLLATQVEGQATNLQRLAEPSQLLKSAIVHLINYQDDAELATRALPELTKLLNDEDPVVVTKAAMIVNQLSKKEASRRALMGSPQLVAAVVRTMQNTSDLDTARCTTSILHNLSHHREGLLAIFKSGGIPALVRMLSSPVESVLFYAITTLHNLLLYQEGAKMAVRLADGLQKMVPLLNKNNPKFLAITTDCLQLLAYGNQESKLIILANGGPQALVQIMRNYSYEKLLWTTSRVLKVLSVCPSNKPAIVEAGGMQALGKHLTSNSPRLVQNCLWTLRNLSDVATKQEGLESVLKILVNQLSVDDVNVLTCATGTLSNLTCNNSKNKTLVTQNSGVEALIHAILRAGDKDDITEPAVCALRHLTSRHPEAEMAQNSVRLNYGIPAIVKLLNQPNQWPLVKATIGLIRNLALCPANHAPLQEAAVIPRLVQLLVKAHQDAQRHVAAGTQQPYTDGVRMEEIVEGCTGALHILARDPMNRMEIFRLNTIPLFVQLLYSSVENIQRVAAGVLCELAQDKEAADAIDAEGASAPLMELLHSRNEGTATYAAAVLFRISEDKNPDYRKRVSVELTNSLFKHDPAAWEAAQSMIPINEPYGDDMDATYRPMYSSDVPLDPLEMHMDMDGDYPIDTYSDGLRPPYPTADHMLA
For B1, the binding entry (in the experiment with 3xFLAG-eGFP-Axin1; in experiment [1]) was “binds” each time.

B2: PPM1B (protein, UniProt O75688 1-479)
chain: MGAFLDKPKTEKHNAHGAGNGLRYGLSSMQGWRVEMEDAHTAVVGIPHGLEDWSFFAVYDGHAGSRVANYCSTHLLEHITTNEDFRAAGKSGSALELSVENVKNGIRTGFLKIDEYMRNFSDLRNGMDRSGSTAVGVMISPKHIYFINCGDSRAVLYRNGQVCFSTQDHKPCNPREKERIQNAGGSVMIQRVNGSLAVSRALGDYDYKCVDGKGPTEQLVSPEPEVYEILRAEEDEFIILACDGIWDVMSNEELCEYVKSRLEVSDDLENVCNWVVDTCLHKGSRDNMSIVLVCFSNAPKVSDEAVKKDSELDKHLESRVEEIMEKSGEEGMPDLAHVMRILSAENIPNLPPGGGLAGKRNVIEAVYSRLNPHRESDGASDEAEESGSQGKLVEALRQMRINHRGNYRQLLEEMLTSYRLAKVEGEESPAEPAATATSSNSDAGNPVTMQESHTESESGLAELDSSNEDAGTKMSGEKI
Consider B2, for which the binding result in experiment [1] is “no binding”.

B3: AMER1, Q5JTC6 1-1135 (protein)
chain: METQKDEAAQAKGAAASGSTREQTAEKGAKNKAAEATEGPTSEPSSSGPGRLKKTAMKLFGGKKGICTLPSFFGGGRSKGSGKGSSKKGLSKSKTHDGLSEAAHGPEDVVSEGTGFSLPLPELPCQFPSSQSAHGALETGSRCKTSVAGATEKAVAEKFPSMPKPKKGLKGFFSSIRRHRKSKVTGAEQSEPGAKGPERVRARPHEHVSSAPQVPCFEETFQAPRKENANPQDAPGPKVSPTPEPSPPATEKMACKDPEKPMEACASAHVQPKPAPEASSLEEPHSPETGEKVVAGEVNPPNGPVGDPLSLLFGDVTSLKSFDSLTGCGDIIAEQDMDSMTDSMASGGQRANRDGTKRSSCLVTYQGGGEEMALPDDDDEEEEEEEEVELEEEEEEVKEEEEDDDLEYLWETAQMYPRPNMNLGYHPTTSPGHHGYMLLDPVRSYPGLAPGELLTPQSDQQESAPNSDEGYYDSTTPGFEDDSGEALGLVRRDCLPRDSYSGDALYEFYEPDDSLENSPPGDDCLYDLHGRSSEMFDPFLNFEPFLSSRPPGAMETEEERLVTIQKQLLYWELRREQLEAQEARAREAHAREAHAREAYTREAYGREAYAREAHTWEAHGREARTREAQAREVRCRETQVRETQARQEKPVLEYQMRPLGPSVMGLAAGVSGTSQISHRGITSAFPTTASSEPDWRDFRPLEKRYEGTCSKKDQSTCLMQLFQSDAMFEPDMQEANFGGSPRRAYPTYSPPEDPEEEEVEKEGNATVSFSQALVEFTSNGNLFSSMSCSSDSDSSFTQNLPELPPMVTFDIADVERDGEGKCEENPEFHNDEDLAASLEAFELGYYHKHAFNNYHSRFYQGLPWGVSSLPRYLGLPGLHPRPPPAAMALNRRSRSLDTAETLEMELSNSHLVQGYLESDELQAQQEDSDEEDEEEEEGEWSRDSPLSLYTEPPGAYDWPAWAPCPLPVGPGPAWISPNQLDRPSSQSPYRQATCCIPPMTMSISLSVPESRAPGESGPQLARPSHLHLPMGPCYNLQPQASQSMRARPRDVLLPVDEPSCSSSSGGFSPSPLPQAKPVGITHGIPQLPRVRPEHPQPQPTHYGPSSLDLSKERAEQGASLATSYSSTAMNGNLAK
Take B3: the binding entry in experiment [2] is given as “binds”.

B4: AMER1 (protein, UniProt Q5JTC6 1-1135)
chain: METQKDEAAQAKGAAASGSTREQTAEKGAKNKAAEATEGPTSEPSSSGPGRLKKTAMKLFGGKKGICTLPSFFGGGRSKGSGKGSSKKGLSKSKTHDGLSEAAHGPEDVVSEGTGFSLPLPELPCQFPSSQSAHGALETGSRCKTSVAGATEKAVAEKFPSMPKPKKGLKGFFSSIRRHRKSKVTGAEQSEPGAKGPERVRARPHEHVSSAPQVPCFEETFQAPRKENANPQDAPGPKVSPTPEPSPPATEKMACKDPEKPMEACASAHVQPKPAPEASSLEEPHSPETGEKVVAGEVNPPNGPVGDPLSLLFGDVTSLKSFDSLTGCGDIIAEQDMDSMTDSMASGGQRANRDGTKRSSCLVTYQGGGEEMALPDDDDEEEEEEEEVELEEEEEEVKEEEEDDDLEYLWETAQMYPRPNMNLGYHPTTSPGHHGYMLLDPVRSYPGLAPGELLTPQSDQQESAPNSDEGYYDSTTPGFEDDSGEALGLVRRDCLPRDSYSGDALYEFYEPDDSLENSPPGDDCLYDLHGRSSEMFDPFLNFEPFLSSRPPGAMETEEERLVTIQKQLLYWELRREQLEAQEARAREAHAREAHAREAYTREAYGREAYAREAHTWEAHGREARTREAQAREVRCRETQVRETQARQEKPVLEYQMRPLGPSVMGLAAGVSGTSQISHRGITSAFPTTASSEPDWRDFRPLEKRYEGTCSKKDQSTCLMQLFQSDAMFEPDMQEANFGGSPRRAYPTYSPPEDPEEEEVEKEGNATVSFSQALVEFTSNGNLFSSMSCSSDSDSSFTQNLPELPPMVTFDIADVERDGEGKCEENPEFHNDEDLAASLEAFELGYYHKHAFNNYHSRFYQGLPWGVSSLPRYLGLPGLHPRPPPAAMALNRRSRSLDTAETLEMELSNSHLVQGYLESDELQAQQEDSDEEDEEEEEGEWSRDSPLSLYTEPPGAYDWPAWAPCPLPVGPGPAWISPNQLDRPSSQSPYRQATCCIPPMTMSISLSVPESRAPGESGPQLARPSHLHLPMGPCYNLQPQASQSMRARPRDVLLPVDEPSCSSSSGGFSPSPLPQAKPVGITHGIPQLPRVRPEHPQPQPTHYGPSSLDLSKERAEQGASLATSYSSTAMNGNLAK
For B4, in the experiment with 3xFLAG-eGFP-Axin1, the binding entry is given as “binds”.
